Assay results taken from US20240124510A1, “Cyclic Glycoaminoacid Derivatives” (TFCHEM, priority 2021, published 2024).

Test system: normal human dermal fibroblasts (NHDF)
Experiment: Identification of biological processes involved (DAVID / Gene Ontology functional annotation of modulated genes)
Details: 2 mg/ml versus Control
[1] = Term: Cholesterol biosynthetic process
[2] = Term: Cholesterol metabolic process
[3] = Term: Extracellular matrix organization
[4] = Term: Oxidation-reduction process

## N[C@H]1CCCN(CC(F)(F)[C@]2(O)O[C@H](CO)[C@H](O)[C@H](O)[C@H]2O)C1=O [Compound 6]
[1]
  %: 0.01072%
  Count: 15
[2]
  %: 0.009291%
  Count: 13
[3]
  %: 0.02358%
  Count: 33
Term: Lipid metabolic process
  %: 0.01572%
  Count: 22
[4]
  %: 0.03859%
  Count: 54
Term: Response to wounding
  %: 0.007147%
  Count: 10
Term: Wound healing
  %: 0.007861%
  Count: 11
